Experimental data: PubChem BioAssay AID504791 (Drosophila RNAi Screening Center, 2011)
The screen tested about 23,000 reagents; below is an unselected part of those that have a named target and a result. Of all reagents, 199 (0.86%) were called active. 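Plate-scaled ratios behind the calls are not deposited; printed light signals are raw; many rows marked increased or decreased are still called inactive.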 Reagent sequences are not shown.

Aim: 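Genes of the fly required for silencing by miRNA, siRNA or endo-siRNA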 (primary screen)
Cells: Drosophila S2-derived reporter cells
Knock-down reagent: long dsRNA against Drosophila genes, about 150-250 ng dsRNA per well (siRNA assay); about 80-120 ng (miRNA assay)
Duration: about 5 days (siRNA assay); about 4 days (miRNA assay)
Challenge: copper sulfate induction of reporters: 25 µM (siRNA assay); 200 mM stated (miRNA assay), 1-2 days before reading
Measured: 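Dual luciferase assay: Renilla to firefly signal ratio in each well, scaled to the mean ratio of its plate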
Scale: siRNA reporter hit score: higher = 3 marks a strong hit with raised ratio; -3 a strong hit with lowered ratio
Hit rule: 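a well was a first-pass pick when its plate-scaled ratio rose above 1.5 (siRNA assay) or 1.6 (miRNA assay), or dropped below 0.6; a gene counted only if two separate dsRNAs agreed on retest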

gene knocked down | DRSC id | siRNA reporter hit score | stable siRNA reporter change | stable assay Renilla, run 1 (luminescence) | stable assay firefly, run 1 (luminescence) | Outcome
Lcp65APsi | DRSC08795 | – | – | 4542 | 4.28e5 | inactive
Lcp65APsi | DRSC10342 | – | – | 6486 | 5.12e5 | inactive
CG3748 | DRSC02716 | – | – | 9045 | 5.44e5 | inactive
CG31808 | DRSC22962 | – | – | 4794 | 4.91e5 | inactive
CG1602 | DRSC06601 | – | – | 8353 | 4.73e5 | inactive
AOX1 | DRSC15339 | – | – | 8313 | 4.99e5 | inactive
CG14570 | DRSC11731 | – | – | 7842 | 4.26e5 | inactive
CG9518 | DRSC20194 | – | reporter ratio raised past the hit cutoff | 5366 | 2.69e5 | inactive
CG11920 | DRSC14439 | – | – | 10157 | 4.30e5 | inactive
CG13016 | DRSC06271 | – | – | 6398 | 3.99e5 | inactive
Ppcs | DRSC14127 | – | – | 8395 | 3.76e5 | inactive
CG14949 | DRSC08408 | – | – | 6604 | 3.58e5 | inactive
CG4483 | DRSC10426 | – | – | 3919 | 3.54e5 | inactive
CG15120 | DRSC06542 | – | – | 6495 | 3.15e5 | inactive
PPO3 | DRSC04325 | – | – | 1.33e5 | 4.40e5 | inactive
Jhbp13 | DRSC02913 | – | – | 6879 | 5.48e5 | inactive
CG6878 | DRSC10737 | – | – | 6862 | 3.09e5 | inactive
Tsp42Eh | DRSC06190 | – | – | 6278 | 4.03e5 | inactive
f | DRSC19174 | 3 | – | 5738 | 4.29e5 | inactive
f | DRSC19516 | – | – | 6378 | 3.81e5 | inactive
f | DRSC20331 | – | – | 5275 | 4.05e5 | inactive
CG30268 | DRSC21983 | – | – | 9526 | 8.47e5 | inactive
eIF1 | DRSC08520 | – | – | 4947 | 3.07e5 | inactive
Stam | DRSC03444 | – | – | 11820 | 5.72e5 | inactive
Cyp4g1 | DRSC18459 | – | – | 8539 | 4.29e5 | inactive
CG3999 | DRSC15534 | – | – | 6347 | 3.31e5 | inactive

Next part (7 carried over from the part before).
gene knocked down | DRSC id | siRNA reporter hit score | stable siRNA reporter change | stable assay Renilla, run 1 (luminescence) | stable assay firefly, run 1 (luminescence) | Outcome
f | DRSC19516 | – | – | 6378 | 3.81e5 | inactive
f | DRSC20331 | – | – | 5275 | 4.05e5 | inactive
CG30268 | DRSC21983 | – | – | 9526 | 8.47e5 | inactive
eIF1 | DRSC08520 | – | – | 4947 | 3.07e5 | inactive
Stam | DRSC03444 | – | – | 11820 | 5.72e5 | inactive
Cyp4g1 | DRSC18459 | – | – | 8539 | 4.29e5 | inactive
CG3999 | DRSC15534 | – | – | 6347 | 3.31e5 | inactive
Brd7-9 | DRSC03017 | – | – | 2.72e5 | 3.29e5 | inactive
CG30385 | DRSC06031 | – | – | 7564 | 4.63e5 | inactive
CG7465 | DRSC08592 | – | – | 6198 | 4.23e5 | inactive
CG7465 | DRSC22320 | – | – | 8972 | 5.23e5 | inactive
CG6614 | DRSC02974 | – | – | 5767 | 3.10e5 | inactive
Osbp | DRSC16779 | – | – | 10454 | 3.36e5 | inactive
CG31419 | DRSC15771 | – | – | 7898 | 3.68e5 | inactive
ctp | DRSC18758 | – | – | 6758 | 5.55e5 | inactive
CG12947 | DRSC14575 | – | – | 7607 | 3.93e5 | inactive
Indy | DRSC10393 | – | – | 6778 | 2.72e5 | inactive
CG32260 | DRSC08084 | – | – | 5064 | 3.12e5 | inactive
Pax | DRSC01703 | – | – | 5492 | 3.29e5 | inactive
Pax | DRSC02651 | – | – | 9958 | 1.64e6 | inactive
Pax | DRSC02652 | – | – | 7539 | 4.52e5 | inactive
CG13685 | DRSC10043 | – | – | 5530 | 4.05e5 | inactive
CG6254 | DRSC16002 | – | – | 7027 | 3.84e5 | inactive
CG2113 | DRSC08554 | – | – | 6711 | 3.24e5 | inactive
BomS3 | DRSC21458 | – | – | 9573 | 6.34e5 | inactive
CG16741 | DRSC06622 | – | – | 5367 | 3.53e5 | inactive
CG31538 | DRSC12059 | – | – | 4523 | 3.42e5 | inactive
Fsn | DRSC06875 | – | – | 8138 | 5.48e5 | inactive
dmGlut | DRSC02835 | – | – | 20637 | 2.57e5 | inactive
Orcokinin | DRSC04202 | – | – | 6032 | 3.10e5 | inactive
SmydA-8 | DRSC18797 | – | – | 5912 | 3.24e5 | inactive
SmydA-8 | DRSC22064 | – | – | 9588 | 5.82e5 | inactive
SmydA-8 | DRSC22263 | – | – | 9045 | 5.75e5 | inactive
CG12831 | DRSC06179 | – | – | 6587 | 4.02e5 | inactive
Cpr67B | DRSC10373 | – | – | 7718 | 4.31e5 | inactive
CG33107 | DRSC21898 | – | – | 9984 | 6.52e5 | inactive
CG34444 | DRSC06435 | – | – | 6063 | 5.14e5 | inactive
ICA69 | DRSC11621 | – | – | 9667 | 3.62e5 | inactive
